Drawing on the supplement of paper PMC12819154, “High-throughput peptide-centric local stability assay extends protein–ligand identification to membrane proteins, tissues and bacteria” (Nature Structural & Molecular Biology, 2025), this text covers log2 fold change for eleven targets.

Chains of the proteins cited; added tags and fusions are not shown. Lines headed by an entry give the natural chain unless they say otherwise; changes in a name come on top.
UniProt P22525: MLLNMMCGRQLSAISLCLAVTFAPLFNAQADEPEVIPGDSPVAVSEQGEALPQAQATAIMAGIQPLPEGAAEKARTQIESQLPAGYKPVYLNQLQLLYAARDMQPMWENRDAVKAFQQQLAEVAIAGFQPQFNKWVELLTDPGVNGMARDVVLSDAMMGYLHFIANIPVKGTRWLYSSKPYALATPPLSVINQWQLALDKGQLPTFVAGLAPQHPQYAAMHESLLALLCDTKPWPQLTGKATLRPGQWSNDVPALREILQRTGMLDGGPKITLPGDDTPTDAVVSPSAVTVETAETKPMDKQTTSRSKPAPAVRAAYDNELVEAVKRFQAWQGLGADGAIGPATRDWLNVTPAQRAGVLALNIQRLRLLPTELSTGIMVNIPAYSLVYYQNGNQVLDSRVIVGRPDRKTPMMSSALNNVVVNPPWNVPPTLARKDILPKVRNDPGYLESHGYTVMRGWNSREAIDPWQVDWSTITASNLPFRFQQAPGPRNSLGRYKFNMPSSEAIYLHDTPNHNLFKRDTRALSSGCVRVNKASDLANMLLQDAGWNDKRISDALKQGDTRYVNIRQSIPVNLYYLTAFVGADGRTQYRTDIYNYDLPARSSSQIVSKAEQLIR
UniProt P0DMC5: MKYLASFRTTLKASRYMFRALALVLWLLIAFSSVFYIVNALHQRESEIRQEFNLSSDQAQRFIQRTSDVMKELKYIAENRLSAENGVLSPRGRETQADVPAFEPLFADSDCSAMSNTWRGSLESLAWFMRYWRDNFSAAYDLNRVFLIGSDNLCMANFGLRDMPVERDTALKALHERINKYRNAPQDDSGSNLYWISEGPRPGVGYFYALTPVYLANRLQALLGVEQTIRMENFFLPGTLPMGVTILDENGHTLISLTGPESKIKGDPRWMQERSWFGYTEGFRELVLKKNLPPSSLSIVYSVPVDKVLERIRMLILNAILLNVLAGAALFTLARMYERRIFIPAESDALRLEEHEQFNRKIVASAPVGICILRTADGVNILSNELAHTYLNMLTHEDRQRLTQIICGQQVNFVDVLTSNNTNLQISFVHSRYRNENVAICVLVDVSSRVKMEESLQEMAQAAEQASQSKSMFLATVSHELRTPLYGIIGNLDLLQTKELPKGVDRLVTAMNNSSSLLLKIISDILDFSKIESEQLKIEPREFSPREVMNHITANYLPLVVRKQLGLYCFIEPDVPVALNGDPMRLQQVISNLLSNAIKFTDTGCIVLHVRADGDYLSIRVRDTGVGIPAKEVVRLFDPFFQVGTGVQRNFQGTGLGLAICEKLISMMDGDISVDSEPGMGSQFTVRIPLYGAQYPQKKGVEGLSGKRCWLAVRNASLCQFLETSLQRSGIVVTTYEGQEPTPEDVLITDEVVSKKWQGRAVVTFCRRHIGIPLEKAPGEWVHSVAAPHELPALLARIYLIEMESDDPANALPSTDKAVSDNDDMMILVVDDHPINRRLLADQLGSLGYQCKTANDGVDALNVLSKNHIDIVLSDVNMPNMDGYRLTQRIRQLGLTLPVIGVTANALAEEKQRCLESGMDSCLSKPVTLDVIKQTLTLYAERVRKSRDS
UniProt P23869: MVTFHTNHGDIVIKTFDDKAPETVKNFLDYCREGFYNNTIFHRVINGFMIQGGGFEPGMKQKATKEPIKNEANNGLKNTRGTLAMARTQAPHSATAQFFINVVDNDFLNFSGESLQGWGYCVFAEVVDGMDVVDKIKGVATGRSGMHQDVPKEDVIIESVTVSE
UniProt P15031: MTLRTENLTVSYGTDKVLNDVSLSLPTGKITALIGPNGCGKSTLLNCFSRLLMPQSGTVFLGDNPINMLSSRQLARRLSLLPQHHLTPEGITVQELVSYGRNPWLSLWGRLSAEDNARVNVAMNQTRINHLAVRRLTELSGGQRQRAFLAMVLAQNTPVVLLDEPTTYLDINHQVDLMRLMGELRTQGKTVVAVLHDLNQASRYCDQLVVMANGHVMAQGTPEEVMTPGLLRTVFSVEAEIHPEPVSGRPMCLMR
UniProt P21362: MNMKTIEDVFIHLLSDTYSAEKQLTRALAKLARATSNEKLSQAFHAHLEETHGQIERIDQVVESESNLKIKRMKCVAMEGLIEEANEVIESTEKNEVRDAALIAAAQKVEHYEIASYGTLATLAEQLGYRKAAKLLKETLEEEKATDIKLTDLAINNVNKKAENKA
UniProt P21437: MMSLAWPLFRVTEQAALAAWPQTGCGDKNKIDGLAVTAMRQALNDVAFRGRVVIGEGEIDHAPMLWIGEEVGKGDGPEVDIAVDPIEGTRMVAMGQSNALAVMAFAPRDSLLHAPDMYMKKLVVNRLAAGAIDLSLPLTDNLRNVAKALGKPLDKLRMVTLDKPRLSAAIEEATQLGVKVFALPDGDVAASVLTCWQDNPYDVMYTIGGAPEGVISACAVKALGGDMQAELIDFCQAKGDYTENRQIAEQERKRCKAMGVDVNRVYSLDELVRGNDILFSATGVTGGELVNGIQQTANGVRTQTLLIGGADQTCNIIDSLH
UniProt P23305: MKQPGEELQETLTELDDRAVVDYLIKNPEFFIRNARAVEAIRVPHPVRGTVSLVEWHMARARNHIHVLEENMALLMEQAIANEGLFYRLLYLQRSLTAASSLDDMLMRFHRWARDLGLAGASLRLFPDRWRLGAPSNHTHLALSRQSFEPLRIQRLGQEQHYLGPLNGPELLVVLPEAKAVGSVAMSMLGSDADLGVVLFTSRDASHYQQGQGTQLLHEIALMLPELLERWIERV
UniProt P16703: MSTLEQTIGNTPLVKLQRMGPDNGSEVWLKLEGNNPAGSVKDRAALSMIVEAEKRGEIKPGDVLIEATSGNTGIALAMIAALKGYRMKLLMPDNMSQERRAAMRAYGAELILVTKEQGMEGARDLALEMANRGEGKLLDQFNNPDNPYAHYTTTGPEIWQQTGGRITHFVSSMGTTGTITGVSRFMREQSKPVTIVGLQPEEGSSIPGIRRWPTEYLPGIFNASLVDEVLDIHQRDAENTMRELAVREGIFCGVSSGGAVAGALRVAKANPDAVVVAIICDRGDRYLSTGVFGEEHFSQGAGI
UniProt P18355: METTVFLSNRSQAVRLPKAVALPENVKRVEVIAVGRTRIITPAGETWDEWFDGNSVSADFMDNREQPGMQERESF
UniProt P19769: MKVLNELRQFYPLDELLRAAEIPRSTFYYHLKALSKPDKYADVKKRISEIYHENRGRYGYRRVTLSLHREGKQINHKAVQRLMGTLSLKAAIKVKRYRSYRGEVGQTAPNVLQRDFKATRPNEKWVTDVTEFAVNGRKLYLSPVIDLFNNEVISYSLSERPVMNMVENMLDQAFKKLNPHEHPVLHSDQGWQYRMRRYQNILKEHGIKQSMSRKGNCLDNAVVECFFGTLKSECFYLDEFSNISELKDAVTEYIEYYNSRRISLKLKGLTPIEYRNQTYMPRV
UniProt P15034: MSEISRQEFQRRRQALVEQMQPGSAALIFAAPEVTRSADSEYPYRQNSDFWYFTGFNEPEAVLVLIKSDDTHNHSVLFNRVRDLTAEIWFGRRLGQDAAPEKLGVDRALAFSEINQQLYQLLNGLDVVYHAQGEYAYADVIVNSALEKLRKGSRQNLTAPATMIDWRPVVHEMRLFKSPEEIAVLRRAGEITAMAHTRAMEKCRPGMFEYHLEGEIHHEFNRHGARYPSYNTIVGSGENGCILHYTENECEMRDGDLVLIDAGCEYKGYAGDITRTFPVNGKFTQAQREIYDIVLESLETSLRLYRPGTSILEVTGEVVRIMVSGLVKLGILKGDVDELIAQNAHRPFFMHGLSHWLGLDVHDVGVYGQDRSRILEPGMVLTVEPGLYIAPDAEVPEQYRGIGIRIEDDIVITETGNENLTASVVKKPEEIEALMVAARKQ

This is one part of the list. Most entries show no effect beyond the scatter of the controls.

Compound in the assay: CC1(C)S[C@@H]2[C@H](NC(=O)[C@H](N)c3ccccc3)C(=O)N2[C@H]1C(=O)O [ampicillin]
Nature of the assay: log2 fold change of tryptic peptide abundance, ligand vs vehicle (limited proteolysis) (log2 ratio); higher = more trypsin-susceptible (destabilized). The note with it: ligand concentration: 10 uM; sample: E. coli crude lysate.
Take “UniProt P22525 (peptide sequence: RFQAWQGLGADGAIGPATR, peptide start residue: 327)”: the log2 fold change is -0.874.

Consider “UniProt P0DMC5 (peptide sequence: SMFLATVSHELR, peptide start residue: 471)”, for which the log2 fold change was determined as 0.294.

As for “UniProt P23869 (peptide sequence: EPIKNEANNGLK, peptide start residue: 66)”, the log2 fold change stood at 0.279.

For “UniProt P15031 (peptide sequence: LTELSGGQR, peptide start residue: 136)”, the log2 fold change is -0.0979.

On to “UniProt P21362 (peptide sequence: LTDLAINNVNKK, peptide start residue: 150)”, for which the log2 fold change is -0.0882.

Consider “UniProt P21437 (peptide sequence: QIAEQERK, peptide start residue: 246)”, for which the log2 fold change is -0.203.

In the case of “UniProt P23305 (peptide sequence: LFPDRWR, peptide start residue: 125)”, the log2 fold change was -0.561.

Take “UniProt P16703 (peptide sequence: LLMPDNMSQER, peptide start residue: 89)”: the log2 fold change came to 0.142.

Turning to “UniProt P18355 (peptide sequence: SQAVRLPK, peptide start residue: 11)”, the log2 fold change is -0.378.

Turning to “UniProt P19769 (peptide sequence: AVQRLMGTLSLK, peptide start residue: 78)”, the log2 fold change is -0.217.

As to “UniProt P15034 (peptide sequence: LGQDAAPEKLGVDR, peptide start residue: 94)”, the log2 fold change was -0.425.
